# Some of the results follow. The main result of the screen is listed elsewhere. These columns were measured beside it and carry no call. The list favours compounds with an active or inconclusive main result. Potencies come from curve fits of mixed quality, noted in brackets.
# Assay: qHTS Assay to Find Inhibitors of Chronic Active B-Cell Receptor Signaling
# Conditions: ABC-DLBCL IkBa-CBG/CBR reporter, luminescence ratio (green luciferase fused to IkBa over red control in TMD8 lymphoma cells), 4 h
# How it was run: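 Cell line TMD8 (human ABC DLBCL), stably expressing tet-inducible CBG68-IkBa fusion and CBR; IMDM/0.5% FBS; cpd up to 46 uM; dox induction, 4 h, 37C/5% CO2; dual luminescence; green/red ratio; MG132 control.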
# [1] = measured here: CBR red luminescence, cell number
# [2] = measured here: IkBa-CBG green luminescence
Compound,AC50 [1],AC50 [2]
CCS(=O)(=O)NCCc1cc2cc(C)c(C)cc2[nH]c1=O,"5.62 µM [rising, single point]",
CCCC1=C(C(=O)OCC)C(c2ccc(F)cc2)n2ncnc2N1 (centres undefined),"11.2 µM [falling, single point]",
O=C(Nc1nc2ccccc2[nH]1)C1CCCC1,"3.98 µM [falling, full curve, poor fit]",
NNC(=O)CCc1nc2ccc(O)cc2[nH]1,"10 µM [rising, partial curve, poor fit]",
CC1(C(=O)OCC(=O)Nc2ccc3ccccc3c2)CC1(Cl)Cl (centres undefined),"2.24 µM [rising, partial curve, poor fit]",
O=C(c1cccc(N2C(=O)C3CC=CCC3C2=O)c1)N1CCN(c2ccccc2)CC1 (centres undefined),"11.2 µM [falling, partial curve, poor fit]",
C=C1CCC[C@]2(C)C[C@H]3OC(=O)C(CNC(CC)CO)[C@H]3CC12 (some centres undefined),"11.2 µM [falling, partial curve, poor fit]",
CCOc1ccc(/C=C2\SC(=S)N(CCCC(=O)NCCCN3CCOCC3)C2=O)cc1,"3.16 µM [falling, full curve, poor fit]",
Cc1ccc(NC(=O)N2CCCC2C(=O)Nc2ccc(-n3cnnn3)c(C)c2)cc1 (centres undefined),"25.9 µM [rising, single point]",
CC(C(=O)Nc1cccc(Br)c1)c1ccc([N+](=O)[O-])cc1 (centres undefined),,"23.1 µM [rising, partial curve, poor fit]"
COc1ccc(-c2nn(C)c(=O)c3ccccc23)cc1CNC(=O)C1CCCCC1,"7.08 µM [falling, partial curve, poor fit]",
O=C(O)COc1c(Cl)cc(/C=C2\NC(=O)NC2=O)cc1Br,"35.5 µM [rising, single point]",
N/C(=N\OC(=O)CC1CCCCC1)c1ccc(Cl)cc1,"11.2 µM [rising, partial curve]",
CCNC(=O)c1ccccc1-c1nc(-c2ccccc2)no1,"35.5 µM [rising, partial curve, poor fit]",
COc1ccc(-n2c(C)cc(C(=O)COC(=O)c3ccc(O)cc3O)c2C)cc1,"25.9 µM [falling, partial curve]",
Cc1cccc(NS(=O)(=O)c2ccc(C)c(C(=O)OCC(=O)Nc3cc(C)on3)c2)c1,"12.6 µM [falling, partial curve]",
CCOc1cc(C(c2c(C)[nH][nH]c2=O)c2c(C)[nH][nH]c2=O)ccc1OS(=O)(=O)c1ccccc1,"29.1 µM [falling, single point]",
NC(=O)CC(NC(=O)Cc1cccc2ccccc12)c1ccc(NCCc2ccccc2F)c([N+](=O)[O-])c1 (centres undefined),"5.62 µM [rising, single point]",
C=CCOc1c(CNc2nccs2)cccc1OCC,"32.6 µM [rising, partial curve, poor fit]",
Cc1cc(-n2c(C)cc(C(=O)CSc3nnnn3-c3ccc(Cl)cc3)c2C)no1,"10.3 µM [rising, partial curve, poor fit]",
COc1ccc(C(=O)CSC#N)cc1OC,,"22.4 µM [falling, single point]"

# In a second layout: results already given.
Compound	AC50 [1]	AC50 [2]
CCOc1cc(C(c2c(C)[nH][nH]c2=O)c2c(C)[nH][nH]c2=O)ccc1OS(=O)(=O)c1ccccc1	29.1 µM [falling, single point]	
NC(=O)CC(NC(=O)Cc1cccc2ccccc12)c1ccc(NCCc2ccccc2F)c([N+](=O)[O-])c1 (centres undefined)	5.62 µM [rising, single point]	
C=CCOc1c(CNc2nccs2)cccc1OCC	32.6 µM [rising, partial curve, poor fit]	
Cc1cc(-n2c(C)cc(C(=O)CSc3nnnn3-c3ccc(Cl)cc3)c2C)no1	10.3 µM [rising, partial curve, poor fit]	
COc1ccc(C(=O)CSC#N)cc1OC		22.4 µM [falling, single point]

# The list continues:

Compound,AC50 [1],AC50 [2]
O=[N+]([O-])c1cccc(N=Cc2sc3ccccc3c2O)c1,"3.16 µM [falling, full curve]",
Cc1nn(CC(O)CN2c3ccccc3Sc3ccccc32)c(C)c1Br (centres undefined),"29.1 µM [falling, single point]",
Cc1ccc(N(CC(=O)Nc2ccc(F)c(Cl)c2)S(=O)(=O)c2c(C)noc2C)cc1,"8.91 µM [falling, partial curve]",
Cn1c(SCc2cccc([N+](=O)[O-])c2)nc2c(c1=O)SCC2,"12.6 µM [falling, partial curve]",
CCCNC(=O)c1nnsc1S(=O)(=O)c1ccc(Cl)cc1,"2.82 µM [falling, full curve]",
COc1ccc(CCNC(=O)COC(=O)CNS(=O)(=O)c2ccc(SC)c([N+](=O)[O-])c2)cc1,"29.1 µM [falling, single point]",
Cc1ccccc1-n1c(-c2csc3ccccc23)n[nH]c1=S,"20.6 µM [falling, partial curve]",
COc1cc2nc(=S)n3[nH]c(COc4ccccc4C)nc3c2cc1OC,"23.1 µM [rising, partial curve]","20.6 µM [falling, partial curve, poor fit]"
O=C(Nc1nnc(CCN2CCCCC2)s1)C1CCCCC1,"4.61 µM [falling, single point]",
Cc1cc[n+](-c2[nH]c(=O)sc2/C=N/N=C(\[O-])c2ccccc2)cc1C,"22.4 µM [falling, single point]",
Cn1nc(C(F)(F)F)cc1C(=O)Nc1ccc(Cl)cc1,"1.41 µM [rising, partial curve, poor fit]",
Cc1ccccc1NC(=O)c1ccc2c(c1)CCN2S(C)(=O)=O,"35.5 µM [falling, partial curve, poor fit]",
COC(=O)c1c(C)oc(C)c1S(=O)(=O)NCC1CC1,"0.501 µM [rising, full curve, poor fit]",
CCn1nc(C(=O)NNC(=O)c2ccccc2)c2ccccc2c1=O,"29.1 µM [falling, single point]",
O=C(O)C1OC(Oc2cc3oc(-c4ccccc4)cc(=O)c3c(O)c2O)C(O)C(O)C1O (centres undefined),,"20.6 µM [rising, partial curve, poor fit]"
CC(=O)NC(c1ccco1)c1cc(Cl)c2ccccc2c1O (centres undefined),"25.9 µM [falling, partial curve, poor fit]",
CCOc1ncccc1C(=O)OCc1c(F)cccc1Cl,"6.31 µM [rising, partial curve]",
CCOc1ccc2nc(NC(=O)c3cc([N+](=O)[O-])ccc3N3CCOCC3)sc2c1,"29.1 µM [rising, partial curve, poor fit]",
COc1ccc(Cl)cc1S(=O)(=O)n1ccnc1C(C)C,"29.1 µM [rising, single point]",
C=CCOC(=O)C1=C(C)NC(SC)=C(C#N)C1c1ccc(OCC)cc1 (centres undefined),"35.5 µM [falling, partial curve, poor fit]",
COC(=O)/C=C1\NCCNC1=O,"1.12 µM [rising, partial curve]",

Compound,AC50 [1],AC50 [2]
COCCn1c(C)cc(O)c(C(c2ccccc2)N2CCCCC2)c1=O (centres undefined),"22.4 µM [rising, partial curve, poor fit]",
Cc1cc(=O)[nH]c(SCC(=O)OCc2ccccc2)c1C#N,"2.24 µM [rising, full curve]",
Cc1csc(NC(=O)CSc2nc3[nH]ncc3c(=O)[nH]2)n1,"5.01 µM [falling, partial curve, poor fit]",
COc1ccc(-c2nc(N)nc(N)n2)c(O)c1,"6.51 µM [falling, partial curve]",
CN1CCN(C(c2ccc(Cl)cc2)c2cc(Cl)c3cccnc3c2O)CC1 (centres undefined),"12.6 µM [falling, single point]",
Cc1c(C(=O)NCCn2ccc3ccccc32)cccc1[N+](=O)[O-],"28.2 µM [falling, single point]",
CCc1ccccc1NC(=O)C(C#N)Cc1cccnc1 (centres undefined),"4.11 µM [falling, single point]",
O=[N+]([O-])c1c(NCCCO)cc(Sc2ccc(Cl)cc2)c2nonc12,"3.66 µM [falling, partial curve, poor fit]",
Cc1cc(C)n(-c2nc3ccccc3c(=O)n2OCC(=O)Nc2c(C)cccc2C)n1,"16.4 µM [rising, single point]",
Cc1c(N=C2NC(=O)C(CC(=O)Nc3ccccc3)S2)c(=O)n(-c2ccccc2)n1C (centres undefined),"6.51 µM [rising, partial curve, poor fit]",
O=C(O)/C=C/C(=O)Nc1ccccc1SC(F)(F)C(F)(F)C(F)(F)F,"10 µM [falling, partial curve]",
CN(C)c1cccc(C(=O)Nc2ccc(N3CCOCC3)cc2)c1,"18.4 µM [falling, partial curve, poor fit]",
CC(C)N(C)C1CCN(C(=O)Nc2ccc(Cl)cc2)CC1,"22.4 µM [rising, single point]",
O=C(C(NS(=O)(=O)c1cccc2nsnc12)c1ccccc1)N1CCN(c2ccccc2)CC1 (centres undefined),"0.0058 µM [falling, full curve, poor fit]",
CCOC(=O)c1ccccc1NC(=S)N1CCCCC1,"20.6 µM [rising, partial curve, poor fit]",
CCn1cc(C(=O)OCC(=O)c2cc(C)n(-c3ccccc3)c2C)c(=O)c2ccc(C)nc21,"1.3 µM [rising, full curve, poor fit]",
CC(=O)c1c(C)[nH]c(C(=O)NCc2cccc(Cl)c2)c1C,"25.1 µM [rising, partial curve, poor fit]",
Cc1ccc(NC(=O)C(=O)NCc2ccc(/C=N/NC(=O)c3c(C)nc4cc(C)ccn34)o2)cc1,"0.103 µM [falling, full curve, poor fit]",
Cc1ccc(CSc2ncn(-c3ccccc3)n2)cc1,"11.6 µM [rising, partial curve, poor fit]",
CC(C)(C)c1csc(NC(=O)c2ccc3nccnc3c2)n1,"15.8 µM [falling, partial curve, poor fit]",
O=C(COC(=O)c1n[nH]c2ccccc12)NCCc1ccc(Cl)cc1,,"16.4 µM [falling, partial curve, poor fit]"
